We go through one molecule from US20130309248A1.

No constants are given. Whether binding was seen depends on the method and setting. Some results given as binding are weak or reduced against the parent protein; the word gives no strength.

Assay [1] deals with H3 HA of A/Hong Kong/1/1968 on cells (influenza A virus (H3N2)) (UniProt Q91MA7). Put plainly: FACS, HA-expressing cells, mAb added after all treatments. (A flow cytometer gives signals particle by particle.)
Assay [2] has the same target. The assay is described as follows: FACS, HA-expressing cells, mAb added after trypsin cleavage.

B1: CR8041 (antibody, V domains shown)
VH: QVQLVQSGAEVKKPGASVKVSCQASGYTFTSFGLSWVRQAPGQGPEWMGWISAYNGEIKYAQKFQGRVSMTTDTSTRTAYMEVRSLRPDDTAVYYCAREPPLYFSSWSLDF
VL: EIVLTQSPGTLSLSPGERATLSCRASQSVSSNYLAWFQQKPGQAPRLLIYGASRRATGIPDRFSGSGSGTDFTLTISRLEPEDFAVYYCQQYDSSPRT
Take B1: the binding result in assay [1] and in assay [2] was “binds” throughout.
